Measured values from the supplement of paper PMC12067093, “Discovery and optimisation of a covalent ligand for TRIM25 and its application to targeted protein ubiquitination” (Chemical Science, 2025).
The other results are listed elsewhere or left out.

Compound: CC1Cc2ccccc2N1C(=O)C1CCCN(C1)C(=O)CCl (mixture of isomers) [TRIM25 ligand 11 (diastereomer mixture)]
Test: probe-labelled cysteine peptide fold change vs DMSO (competition) (log2 fold change); higher = less target engagement (more negative = stronger competition)
Settings: THP-1, incubation time: 4 h
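Note: competitive chemoproteomic profiling in live THP-1 cells with an iodoacetamide desthiobiotin (IA-DTB) probe, comparing probe-labelled peptide intensities in compound-treated cells against DMSO-treated controls.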

Row | Target | probe-labelled cysteine peptide fold change (10 µM) | probe-labelled cysteine peptide fold change (50 µM)
1 | GNL3L_Q9NVN8_278_ACSVGAVPGITK (UniProt Q9NVN8) | 0.0241 | -0.0169
2 | GOLGB1_Q14789_681_SLSAVPDIGQCHQDELER (UniProt Q14789) | -0.0704 | -0.0481
3 | GMEB1_Q9Y692_274_GIADVGLMEEVVCNIQK (UniProt Q9Y692) | -0.112 | 0.0135
4 | GMPPA_Q96IJ6_335_LRESIVLHGATLQEHTCVLHSIVGWGSTVGR (UniProt Q96IJ6) | -0.0276 | -0.0093
5 | GMPR2_Q9P2T1_222+224_GHIISDGGCSCPGDVAK (UniProt Q9P2T1) | 0.0719 | -0.118
6 | GMDS_O60547_237_IYLGQLECFSLGNLDAK (UniProt O60547) | -0.00894 | -0.049
7 | GNPNAT1_Q96EK6_113_FIHSCAK (UniProt Q96EK6) | 0.225 | 0.133
8 | GK_P32189_299_CVFSDHGLLTTVAYK (UniProt P32189) | 0.031 | -0.0458
9 | GNB2_P62879_148+149_ELPGHTGYLSCCR (UniProt P62879) | 0.103 | 0.141
10 | GNB2_P62879_25_ACGDSTLTQITAGLDPVGR (UniProt P62879) | 0.0877 | 0.154
11 | GLG1_Q92896_950_FCHGILTK (UniProt Q92896) | 0.00679 | -0.0594
12 | GNPNAT1_Q96EK6_157_ITLECLPQNVGFYKK (UniProt Q96EK6) | -0.27 | 0.0452
13 | GPD1L_Q8N335_104_ICDEITGR (UniProt Q8N335) | 0.0477 | -0.0607
14 | GIT2_Q14161_35_GTFLCDECCSVHR (UniProt Q14161) | 0.00118 | 0.0943

Given tab-delimited: part of the list above
Row	Target	probe-labelled cysteine peptide fold change (10 µM)	probe-labelled cysteine peptide fold change (50 µM)
12	GNPNAT1_Q96EK6_157_ITLECLPQNVGFYKK (UniProt Q96EK6)	-0.27	0.0452
13	GPD1L_Q8N335_104_ICDEITGR (UniProt Q8N335)	0.0477	-0.0607
